# Assay results reported in PubChem BioAssay AID488837 (National Center for Advancing Translational Sciences (NCATS), 2010).
# Amino acid sequences for entries named in this document (tags omitted). A change or cut given only in a name is not applied to a line headed by its entry.
# UniProt O00167: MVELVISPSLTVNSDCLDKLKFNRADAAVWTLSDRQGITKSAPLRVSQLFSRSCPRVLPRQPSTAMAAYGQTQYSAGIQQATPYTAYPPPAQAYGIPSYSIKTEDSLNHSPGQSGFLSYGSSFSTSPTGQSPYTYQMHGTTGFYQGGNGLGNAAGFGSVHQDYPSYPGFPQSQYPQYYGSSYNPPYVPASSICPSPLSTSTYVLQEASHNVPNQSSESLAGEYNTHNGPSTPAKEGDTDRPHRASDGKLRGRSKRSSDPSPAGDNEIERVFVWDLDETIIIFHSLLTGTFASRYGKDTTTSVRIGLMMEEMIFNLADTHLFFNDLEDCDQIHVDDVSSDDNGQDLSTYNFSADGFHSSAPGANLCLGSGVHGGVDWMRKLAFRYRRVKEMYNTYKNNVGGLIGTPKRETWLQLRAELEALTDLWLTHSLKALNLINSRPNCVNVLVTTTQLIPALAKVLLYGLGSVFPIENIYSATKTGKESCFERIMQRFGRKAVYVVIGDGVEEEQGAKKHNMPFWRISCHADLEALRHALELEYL
# The campaign covered roughly 330,000 compounds. About 20 (0.006%) were called active. Inconclusive means that the source gave no clear call. Such entries were picked first, then a sample of the others. Calls come from the whole dose curve; as a rule, active = well fitted inhibition curve with a large enough effect; inconclusive = small, poorly fitted or top-dose-only effect, or effect the other way; inactive = flat fitted curve, though single readings scatter. Where the call is inconclusive, the potency comes from a doubtful curve fit.
# Target: Protein phosphatase EYA2 (Homo sapiens) (UniProt O00167)
# Test: qHTS Assay for Inhibitors of the Phosphatase Activity of Eya2
# Details: recombinant Eya2, OMFP fluorescence dephosphorylation (OMFP is methylfluorescein phosphate); activity, negative = inhibition: at 76.9 µM (top of the series) unless noted
# Procedure, shortened: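 Eya2 (0.2 uM) preincubated 10 min at ambient with compound, then OMFP substrate added at 50 uM; 10 min reaction in 50 mM HEPES pH 7.5, 50 mM NaCl, 5 uM MgCl2, 0.05% BSA, 1 mM DTT. Fluorescence read at Ex 485/Em 525 nm.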
# % is set by controls: 0 for no effect and ±100 for the full control effect; potency is the fitted concentration of half-maximal effect.
SMILES,Potency,"activity, negative = inhibition"
Cn1cccc1/C=C1\CCC/C(=C\c2cccn2C)C1=O,"inconclusive: 39.8 µM [activator, partial curve]",–
CN(C)CCCN=C(NO)c1ccc(Cl)cc1Cl,"inconclusive: 20 µM [inhibitor, single point]",–
N#Cc1c2n(c(=S)n(-c3ccc(F)cc3)c1=O)CCCCC2,"inconclusive: 1260 µM [inhibitor, partial curve]",–
COc1ccc(CCNS(=O)(=O)c2ccc(Br)cc2)cc1,"inconclusive: 25.1 µM [inhibitor, single point]",–
CCCn1c(=O)c(C(=O)NCCc2ccccc2)c(O)c2ccccc21,"inconclusive: 22.4 µM [inhibitor, single point]",–
Cc1nn(CC(=O)Nc2ccc(S(N)(=O)=O)cc2)c(=O)c2ccccc12,"inconclusive: 100 µM [inhibitor, single point]",–
O=C(COC(=O)/C=C/c1ccc(F)cc1)Nc1cccc(S(=O)(=O)N2CCCC2)c1,–,inactive: 3.72%
CCC(C(=O)OC)n1cnc2c(nnn2-c2ccccc2)c1=O (stereo unspecified),"inconclusive: 100 µM [inhibitor, single point]",–
Cc1ccc(CNC(=O)C2CCCCN2S(=O)(=O)c2ccccc2)cc1 (stereo unspecified),"inconclusive: 1120 µM [inhibitor, partial curve, poor fit]",–
Cc1nc(N2CCOCC2)c2cc(-c3ccccc3)sc2n1,–,inactive: -0.456% [at 15.4 µM]
O=C(CN1C(=O)NC(Cc2c[nH]c3ccccc23)C1=O)NCC(F)(F)F (stereo unspecified),"inconclusive: 126 µM [inhibitor, partial curve, poor fit]",–
CCN(CC)C(=O)[C@H]1CC(CC(=O)NCc2ccc(OC)c(OC)c2)C(=O)N2CCc3c([nH]c4ccc(OC)cc34)[C@]12C (stereo partly specified),–,inactive: 8.56%
COc1ccc(S(=O)(=O)N2CCCCC2)cc1NCC(=O)Nc1ccc(C)cc1,"inconclusive: 100 µM [inhibitor, single point]",–
ON=C1c2cc(OCCN3CCCCC3)ccc2-c2ccc(OCCN3CCCCC3)cc21,–,inactive: 13.9%
COc1ccccc1N1CCN(C(=O)CCCn2nc(C)c([N+](=O)[O-])c2C)CC1,"inconclusive: 100 µM [inhibitor, single point]",–
Cc1cccnc1NC(=O)CNC(=O)c1ccccc1,"inconclusive: 20 µM [inhibitor, single point]",–
CCOC(=O)N1C=CC=C[C@@H]2[C@@H](N3C(=O)c4ccccc4C3=O)C(=O)N21,–,inactive: 5.52%
Oc1cc2c(cc1O)[C@@H](c1ccccc1)CNCC2,–,inactive: 6.34%
COc1cc(C2NC(=O)NC(c3ccccc3)=C2C(C)=O)c(Br)cc1OCC(N)=O (stereo unspecified),"inconclusive: 89.1 µM [inhibitor, single point]",–
Cc1ccc(C(C)(C)C)cc1S(=O)(=O)Nc1cccc(C(=O)N2CCN(c3ccccn3)CC2)c1,–,inactive: 7.44%
Cc1cc(NC(=O)CSc2nnc(Nc3ccccc3F)s2)no1,"inconclusive: 112 µM [inhibitor, single point]",–
O=C(CN1CCN(Cc2ccccc2)CC1)N1CCCc2c1c(=O)oc1ccc(O)cc21,"inconclusive: 100 µM [inhibitor, single point]",–
COc1ccc(C(=O)c2cccc(C(=O)c3ccc(OC)c(C)c3)c2)cc1C,"inconclusive: 17.8 µM [inhibitor, single point]",–
COc1ccccc1CNC(=O)CSc1nc(C)cs1,–,inactive: -0.968%

# Entries of single compounds, looked up by structure. Order of values: Potency	activity, negative = inhibition
# `Cc1ccc(C(C)(C)C)cc1S(=O)(=O)Nc1cccc(C(=O)N2CCN(c3ccccn3)CC2)c1` in the list: –	inactive: 7.44%
# `CCN(CC)C(=O)[C@H]1CC(CC(=O)NCc2ccc(OC)c(OC)c2)C(=O)N2CCc3c([nH]c4ccc(OC)cc34)[C@]12C` (stereo partly specified) in the list: –	inactive: 8.56%

# Further results follow:

SMILES,Potency,"activity, negative = inhibition"
CN1C(=O)/C(=C/c2ccccc2F)Sc2ccc(C(=O)NCC3CCCO3)cc21 (stereo unspecified),"inconclusive: 631 µM [inhibitor, partial curve, poor fit]",–
COc1ccc(NC(=O)C(NCC(C)C)c2ccccc2)cc1Cl (stereo unspecified),–,inconclusive: -30.4% [inhibitor]
O=C(c1ccccc1-c1nc(-c2ccc(Cl)cc2)no1)N1CCCC1,–,inactive: 2.06%
O=[N+]([O-])c1ccc(N/N=C2\CC3CC=CC23)c([N+](=O)[O-])c1 (stereo unspecified),–,inactive: 15.6%
CCCNC(=O)c1ccc2c(=O)n(Cc3ccco3)c(=S)[nH]c2c1,"inconclusive: 89.1 µM [inhibitor, single point]",–
Oc1sc(C=Nc2ccccc2)c2ccccc12,–,inconclusive: 48.7% [activator]
O=C(O)CNC(=O)CC1S/C(=N/N=C/c2ccccc2O)NC1=O (stereo unspecified),"inconclusive: 794 µM [inhibitor, partial curve, poor fit]",–
O=C(CCC1CCCN(C(=O)c2ccsc2)C1)N1CCN(c2ccccn2)CC1 (stereo unspecified),"inconclusive: 708 µM [inhibitor, single point]",–
CC(C)(C)C(=O)OCc1nc(-c2ccc(Cl)cc2)cs1,"inconclusive: 70.8 µM [inhibitor, single point]",–
CCC(=O)Nc1c(C(=O)Nc2cccc(OC)c2)oc2ccccc12,"inconclusive: 794 µM [inhibitor, partial curve, poor fit]",–
Brc1c(CSc2nncc3ccccc23)nc2ccccn12,"inconclusive: 25.1 µM [inhibitor, single point]",–
C=C[C@@H]1c2cc(C)ccc2N(S(=O)(=O)c2ccc(C)cc2)[C@H](c2ccc(OC(C)=O)cc2)C1(C#N)C#N,–,inactive: -11.3%
c1ccc(-c2cccc(-c3ccccn3)n2)nc1,–,inactive: -16.8%
COC(=O)c1c(-c2ccc(OC)cc2)sc2ccc(OC)cc12,"inconclusive: 70.8 µM [inhibitor, single point]",–
COc1ccc(/C=C/C(O)=C2/C(=O)NC3(C)CC2c2ccccc2O3)c(OC)c1OC (stereo unspecified),"inconclusive: 28.2 µM [inhibitor, single point]",–
CCOC(=O)c1nn(-c2ccc3c(c2)OCCO3)cc1O,–,inactive: -3.73%
O=C(O)CSc1ncnc2c1sc1nc(-c3ccccc3)c3c(c12)CCC3,"inconclusive: 178 µM [inhibitor, partial curve, poor fit]",–
Nc1ccc(C(=O)C(=O)c2ccc(N)cc2)cc1,"inconclusive: 12600 µM [inhibitor, partial curve, poor fit]",–
CCOc1cc(/C=C2\SC(=S)N(C(C(=O)O)c3ccccc3)C2=O)ccc1O (stereo unspecified),"inconclusive: 79.4 µM [activator, partial curve]",–
CCOC(=O)C1C(=O)C=C(/C=C/c2ccc(N(C)C)cc2)CC1c1ccccc1 (stereo unspecified),"inconclusive: 79.4 µM [activator, partial curve]",–
COc1cccc(OC)c1OCCN1CCN(C(c2ccccc2)c2ccccc2)CC1,"inconclusive: 17.8 µM [inhibitor, single point]",–
O=C(Cn1nnc(-c2cccs2)n1)NCc1cccs1,"inconclusive: 251 µM [inhibitor, single point]",–
CS(=O)(=O)Nc1ccc(C(=O)NCCSC2CCCCC2)cc1,–,inactive: 17.9%
O=C(OCCOc1cccc(Cl)c1)C1CCN(S(=O)(=O)c2ccccc2)CC1,–,inactive: -21.8%

SMILES,Potency,"activity, negative = inhibition"
Cc1cc(NCc2ccccn2)n2ncc(-c3ccccc3)c2n1,"inconclusive: 100 µM [inhibitor, single point]",–
OCCN1CCN(CCCN2c3ccccc3Sc3ccc(C(F)(F)F)cc32)CC1,inactive,–
Cc1ccc(CNC(=O)Cn2cncn2)cc1,"inconclusive: 22.4 µM [inhibitor, single point]",–
CC1=CC(=O)N(c2cccc(C(F)(F)F)c2)C1c1ccc(Cl)cc1 (stereo unspecified),"inconclusive: 178 µM [inhibitor, partial curve]",–
O=S(=O)(c1ccccc1Oc1ccc(Cl)cc1Cl)N1CCCCC1,"inconclusive: 100 µM [inhibitor, single point]",–
CC(C)N1CCN(C(=O)c2cccc(Cl)c2)CC1,"inconclusive: 100 µM [inhibitor, single point]",–
O=C(/C=C/c1ccc(Br)cc1)NC(=O)c1ccccc1O,–,inactive: 1.91%
C=CCNc1ncnc2c1cnn2-c1cccc(C)c1,–,inactive: -35.8%
CC(=O)N=Cc1c(C)c(C#N)c(=O)n(C)c1O,–,inactive: -8.29%
COc1ccc(NC(=S)N(C(C)C)C2CCN(C(C)C)CC2)cc1Cl,–,inactive: 4.98%
O=C1OCC/C1=C\OCCCO/C=C1\CCOC1=O,"inconclusive: 100 µM [inhibitor, single point]",–
CCOc1ccc(CNC(=O)CCCC(=O)n2ncc3cc(C)ccc32)cc1,"inconclusive: 20 µM [inhibitor, single point]",–
C=C(C)CSC1=C(C#N)C(c2ccsc2)CC(=O)N1 (stereo unspecified),–,inactive: 19.8%
COc1ccc(S(=O)(=O)N2C(=O)/C(=C3\SC(N)=NC3=O)c3ccccc32)cc1,"inconclusive: 100 µM [inhibitor, single point]",–
Cc1nc(N2CCN(C)CC2)c2sc(=S)n(-c3ccccc3)c2n1,–,inactive: 2.22%
CCN(CCCNC(=O)Cn1ncc2c(=O)oc3ccccc3c21)c1cccc(C)c1,–,inactive: -16.6%
O=C(Cc1ccc(Br)cc1)Nc1nc2ccccc2[nH]1,"inconclusive: 89.1 µM [inhibitor, single point]",–
Nc1c(S(=O)(=O)c2ccccc2)c2nc3ccccc3nc2n1CCN1CCOCC1,–,inactive: -24.1%
O=[N+]([O-])c1cc(Br)c(Nc2ccccc2)c([N+](=O)[O-])c1,–,inactive: 13.7%
Cc1ccc(C)c(OCCCN2CCNCC2)c1,"inconclusive: 28.2 µM [inhibitor, partial curve, poor fit]",–
CCn1nc(C)c(Br)c1-c1nc(CS(=O)(=O)c2ccsc2)no1,"inconclusive: 178 µM [inhibitor, partial curve]",–
O=C1c2ccccc2-c2onc3ccc(NCc4ccco4)c1c23,"inconclusive: 39.8 µM [activator, partial curve]",–
CCCc1ccc(S(=O)(=O)N2CCN(C(C)C(=O)NCc3ccccc3)CC2)cc1 (stereo unspecified),"inconclusive: 11.2 µM [inhibitor, single point]",–

# Given with tabs: 2 of the compounds above.
SMILES	Potency	activity, negative = inhibition
O=C(CN1C(=O)NC(Cc2c[nH]c3ccccc23)C1=O)NCC(F)(F)F (stereo unspecified)	inconclusive: 126 µM [inhibitor, partial curve, poor fit]	–
Nc1c(S(=O)(=O)c2ccccc2)c2nc3ccccc3nc2n1CCN1CCOCC1	–	inactive: -24.1%
